The values that follow come from PMC4587915.

By UniProt entry, the sequences of proteins in these tests, tags left out. Residues count along the entry.
UniProt Q8CJ69, residues 40-685: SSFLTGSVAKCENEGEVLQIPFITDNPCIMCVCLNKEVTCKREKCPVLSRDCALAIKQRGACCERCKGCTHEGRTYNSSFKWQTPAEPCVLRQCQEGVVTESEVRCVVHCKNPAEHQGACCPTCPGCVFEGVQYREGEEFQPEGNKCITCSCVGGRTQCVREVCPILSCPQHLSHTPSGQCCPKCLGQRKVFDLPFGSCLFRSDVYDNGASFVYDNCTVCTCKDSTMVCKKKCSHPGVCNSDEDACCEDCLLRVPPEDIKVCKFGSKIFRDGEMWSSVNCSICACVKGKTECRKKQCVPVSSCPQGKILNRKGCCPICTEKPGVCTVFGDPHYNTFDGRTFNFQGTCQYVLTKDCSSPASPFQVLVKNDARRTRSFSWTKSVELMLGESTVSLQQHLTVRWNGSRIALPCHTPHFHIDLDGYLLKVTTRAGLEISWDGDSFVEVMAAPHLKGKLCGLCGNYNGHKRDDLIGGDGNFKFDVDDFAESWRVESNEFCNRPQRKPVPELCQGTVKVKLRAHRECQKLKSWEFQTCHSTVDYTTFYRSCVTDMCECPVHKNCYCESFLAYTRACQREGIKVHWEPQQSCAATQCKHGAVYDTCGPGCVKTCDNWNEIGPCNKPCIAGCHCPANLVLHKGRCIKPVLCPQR

Results are given in words; binding and its absence hold for the method and conditions named. Some results given as binding are weak or reduced against the parent protein; the word gives no strength.

The target in assay [1] is T1, BMP2 (bone morphogenetic protein 2), recombinant (UniProt P12643).
T1 sequence: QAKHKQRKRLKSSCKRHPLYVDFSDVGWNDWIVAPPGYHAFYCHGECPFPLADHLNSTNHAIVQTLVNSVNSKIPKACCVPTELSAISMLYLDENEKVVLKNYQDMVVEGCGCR
As to the kind of experiment: co-IP; beads conjugated with anti-BMPER or anti-BMP2 antibody (or goat or rabbit IgG controls) incubated with combinations of recombinant BMPER and BMP2; beads isolated, Western blot; both purified. Background: In western blotting, separated proteins are transferred to a membrane and probed.

Assay [2] deals with BMPER (BMP-binding endothelial regulator), recombinant (UniProt Q8CJ69). Described as above.

Take “BMPER (BMP-binding endothelial regulator), recombinant (from UniProt Q8CJ69 40-685)”: the binding result in assay [1] was “binds”.

B1: BMP2 (bone morphogenetic protein 2), recombinant (ligand, UniProt P12643 283-396)
chain: QAKHKQRKRLKSSCKRHPLYVDFSDVGWNDWIVAPPGYHAFYCHGECPFPLADHLNSTNHAIVQTLVNSVNSKIPKACCVPTELSAISMLYLDENEKVVLKNYQDMVVEGCGCR
In the case of B1, the binding result in assay [2] is recorded as “binds”.
